Experimental data: PubChem BioAssay AID504444 (National Center for Advancing Translational Sciences (NCATS), 2011)
In all, about 360,000 compounds went through this assay and about 7,500 (2.1%) were called active. The shares of active, inactive and inconclusive entries below differ from those in the screen. Calls follow the shape of the dose curve; as a rule, active = well fitted inhibition curve with a large enough effect; inconclusive = small, poorly fitted or top-dose-only effect, or effect the other way; inactive = flat fitted curve, though single readings scatter. Where the call is inconclusive, the potency comes from a doubtful curve fit.

assay: Nrf2 qHTS screen for inhibitors; conditions: A549 ARE-Fluc reporter, luciferase luminescence, 18-24 h; activity change, negative = inhibition: at 46 µM (top of the series); also: nearly all actives have a fitted effect of over 60% in size
How it was run: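 Nrf2 function is reported as luminescence of an ARE-controlled luciferase in A549 cells. Compounds were tested at several concentrations, and a CellTiter-Fluor read on the same wells flagged cytotoxicity.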
% is scaled to controls: 0 for no effect and ±100 for the full control effect; potency is read from the fitted curve at half-maximal effect.

With Cc1ccsc1/C=N/NC(=O)C(=O)NCC(C)C as the compound, how does the Potency read?
Its Potency is inconclusive: 18.4 µM [activator, single point].

For O=C(CSc1nnc(-c2ccncc2)n1Cc1ccccc1)NC1CCCCC1, which “activity change, negative = inhibition” value is on record?
Its value is inactive: 9.33%.

For CCCSCCCNC(=O)C1CCN(C(=O)c2cnn(-c3ccccc3)c2-n2cccc2)CC1, which “activity change, negative = inhibition” value is on record?
The value was inactive: 23.2%.

With O=C(c1ccc(Cl)c([N+](=O)[O-])c1)N(Cc1ccco1)C1CCS(=O)(=O)C1 (configuration not stated) as the compound, how does the “activity change, negative = inhibition” value read?
The value was inactive: 1%.

For Cc1ccc(C(=O)OCC(=O)NCCC2=CCCCC2)cc1N, which Potency is on record?
Its Potency is inconclusive: 23.1 µM [activator, partial curve, poor fit].

For COc1ccc(C(=O)Nc2ccc3c(c2)C(=O)c2ccccc2C3=O)cc1OC, which Potency is on record?
The Potency was inconclusive: 0.0731 µM [falling, full curve, poor fit].

With O=C(NCC(=O)N1CCN(Cc2c(F)cccc2Cl)CC1)c1cccc(Cl)c1 as the compound, how does the Potency read?
Its Potency is inconclusive: 20.6 µM [falling, single point].

Which “activity change, negative = inhibition” value does the source give for CC(C)C(=O)NC(Nc1cccc2cccnc12)C(Cl)(Cl)Cl (configuration not stated) here?
The value was inactive: -26.3%.

For Cn1c(SCC(=O)N2CCN(c3ccccc3)CC2)nnc1-c1cc2ccccc2o1, which Potency is on record?
The Potency was inconclusive: 14.6 µM [falling, partial curve, poor fit].

Which Potency does the source give for COc1cc(C(=O)N/N=C/c2cn(Cc3ccccc3)c3ccccc23)ccc1O here?
Its Potency is inconclusive: 29.1 µM [falling, partial curve, poor fit].

Which “activity change, negative = inhibition” value does the source give for C=CCN1C(=O)/C(=C\c2ccc(OC(=O)c3ccco3)c(OC)c2)SC1=S here?
Its value is inactive: 7.14%.

With CCc1sc2nc(SCC(=O)Nc3cc(C)on3)n(-c3cccc(OC)c3)c(=O)c2c1C as the compound, how does the Potency read?
The Potency was inconclusive: 20.6 µM [falling, partial curve, poor fit].

Which Potency does the source give for CC(OC(=O)CN(C)S(=O)(=O)c1ccc(Cl)cc1)C(=O)Nc1ncc(Cl)cc1Cl (configuration not stated) here?
The Potency was inconclusive: 2.31 µM [activator, single point].

With O=C(CN1C(=O)c2ccc([N+](=O)[O-])cc2C1=O)NCc1ccco1 as the compound, how does the Potency read?
The Potency was inconclusive: 0.92 µM [activator, full curve, poor fit].

With CCc1c(C(=O)Nc2ccc(OC)cc2)[nH]c(C)c1C(C)=O as the compound, how does the Potency read?
Its Potency is inconclusive: 23.1 µM [falling, single point].

Which Potency does the source give for O=[N+]([O-])c1cc(Cl)ccc1N1CCN(c2cccc(C(F)(F)F)c2)CC1 here?
The Potency was inconclusive: 29.1 µM [falling, single point].

For COc1ccc(C2CC(=O)c3c([nH]c(C(=O)OCc4ccccc4)c3C)C2)cc1 (configuration not stated), which Potency is on record?
Its Potency is inconclusive: 11.6 µM [falling, partial curve, poor fit].

With CCc1ccc(C(=O)CC2(O)C(=O)N(CCc3ccccc3)c3ccc(Br)cc32)cc1 (configuration not stated) as the compound, how does the Potency read?
The Potency was inconclusive: 29.1 µM [falling, single point].

For c1ccc(-c2cc(-c3ccccc3)on2)cc1, which Potency is on record?
The Potency was inconclusive: 18.4 µM [activator, partial curve].

Which “activity change, negative = inhibition” value does the source give for CCOC(=O)c1sc(NC(=O)CSc2ncn(-c3ccccc3)n2)nc1C here?
Its value is inactive: -14.5%.

Which Potency does the source give for CCC1=Nc2cc(C(=O)NCCc3ccc(OC)c(OC)c3)ccc2Sc2ccccc21 here?
The Potency was inconclusive: 29.1 µM [falling, single point].

For Cn1nc(C(F)(F)F)c(-c2ccc(Br)cc2)c1NC(=O)c1ccco1, which Potency is on record?
Its Potency is inconclusive: 29.1 µM [falling, single point].

Which Potency does the source give for NNC(=O)c1ccc(COc2ccc3c(c2)CCC3)cc1 here?
Its Potency is inconclusive: 25.9 µM [activator, single point].

For CCc1ccccc1S(=O)(=O)Cc1ccc(C(=O)NCc2ccc(Cl)cc2)o1, which Potency is on record?
The Potency was inconclusive: 16.4 µM [falling, partial curve, poor fit].

With c1ccc(CN2CCN(c3nc(N4CCOCC4)c4ccccc4n3)CC2)cc1 as the compound, how does the “activity change, negative = inhibition” value read?
The value was inactive: 12%.

For CC(=O)Nc1ccc(N/C=C/C(=O)c2ccco2)cc1, which Potency is on record?
The Potency was inconclusive: 8.2 µM [activator, partial curve].

For CC(=O)c1cccc(NC(=O)CSc2nc3c(c(=O)[nH]2)CCC3)c1, which Potency is on record?
The Potency was inconclusive: 29.1 µM [falling, single point].

With CCc1ccc(NCc2cc3ccc(OC)cc3n(CC(=O)Nc3ccccc3C)c2=O)cc1 as the compound, how does the Potency read?
Its Potency is inconclusive: 32.6 µM [falling, single point].

Which Potency does the source give for C/C=C/Cn1c(Br)nc2c1c(=O)[nH]c(=O)n2C here?
Its Potency is inconclusive: 6.51 µM [activator, single point].

With CCCOc1ccc(C(C)=O)cc1CC(C(=O)OCC)C(=O)OCC as the compound, how does the “activity change, negative = inhibition” value read?
The value was inactive: -3.31%.

With CCOC(=O)N1CCC(N(CCN(C)C)C(=S)Nc2cccc(Cl)c2)CC1 as the compound, how does the Potency read?
Its Potency is inconclusive: 23.1 µM [falling, single point].

Which Potency does the source give for Cn1c(SCC(=O)Nc2ccc3nc(SCC(=O)N4CCCC4)sc3c2)nnc1-c1ccc(N)cc1 here?
Its Potency is inconclusive: 20.6 µM [falling, single point].

Which Potency does the source give for COCCn1c(CN2CCN(c3cccc(Cl)c3)CC2)nc2c1c(=O)n(C)c(=O)n2C here?
The Potency was active: 6.51 µM.

With Cc1cc(C(C)(C)C)oc1C(=O)N(CC(=O)NC1CCCC1)c1cccc(C(F)(F)F)c1 as the compound, how does the Potency read?
Its Potency is active: 20.6 µM.

For O=[n+]1c2c(n([O-])c3cc(F)c(F)cc31)CCCC2, which “activity change, negative = inhibition” value is on record?
Its value is inactive: 5.67%.

For Cn1cc(CNC(=O)c2cc(COc3ccc4c(c3)CCCC4)on2)cn1, which “activity change, negative = inhibition” value is on record?
Its value is inactive: 1.38%.

Which Potency does the source give for Cc1cc(Cl)ccc1OCC(=O)NNC(=O)C1CCN(c2ncnc3sc(C)c(C)c23)CC1 here?
Its Potency is inconclusive: 23.1 µM [falling, single point].

With COc1ccc(C2=CC(c3sccc3C)n3nnnc3N2)cc1 (configuration not stated) as the compound, how does the Potency read?
The Potency was inconclusive: 10.3 µM [activator, partial curve].

For O=S(=O)(CCN1C=CC(C(F)(F)F)=NCC1)c1ccc(Cl)cc1Cl, which Potency is on record?
Its Potency is inconclusive: 29.1 µM [falling, partial curve, poor fit].

For Cc1cc(C(=O)NC2CCCc3c2cnn3-c2ccc(C)c(C)c2)no1 (configuration not stated), which Potency is on record?
Its Potency is active: 10.3 µM.

Which “activity change, negative = inhibition” value does the source give for COCCN(C(=O)c1ccc(OC2CCN(S(=O)(=O)N(C)C)CC2)cc1)C(C)C here?
Its value is inactive: 2.99%.

Which “activity change, negative = inhibition” value does the source give for COc1ccc(OC)c(CNC(=O)CCSCc2ccc(F)cc2Cl)c1 here?
Its value is inactive: -22%.

With COc1ccc(CSc2nc3ccncc3n2CC(=O)Nc2cc(C)cc(C)c2)cc1 as the compound, how does the Potency read?
Its Potency is inconclusive: 23.1 µM [activator, partial curve, poor fit].

Which “activity change, negative = inhibition” value does the source give for CCOC(=O)c1c(C)[nH]c(C)c1S(=O)(=O)NCC(=O)Nc1ccc(C)cc1C here?
The value was inactive: 6.74%.

For CC(C)c1nnc(NC(=O)c2cccc(NC(=O)C(F)(F)F)c2)s1, which Potency is on record?
Its Potency is inconclusive: 29.1 µM [activator, single point].

With Cc1[nH]n(-c2ccccc2)c(=O)c1/C=N\NC(=O)C1COc2ccccc2O1 (configuration not stated) as the compound, how does the Potency read?
The Potency was active: 16.4 µM.

Which Potency does the source give for O=C(c1ccc(Cl)c(Cl)c1)N1CCC(=O)N(C(COCc2cccc(Cl)c2)Cc2ccccc2)CC1 (configuration not stated) here?
The Potency was inconclusive: 29.1 µM [falling, single point].

With CCOC(=O)C1=C(OCc2ccc(Cl)cc2)C2C=C(C)C=CC2N=C1 (configuration not stated) as the compound, how does the “activity change, negative = inhibition” value read?
The value was inactive: -24.9%.

With CC(C)(C)NC(=O)CSc1nc2cccnc2n1C1CCCCC1 as the compound, how does the Potency read?
The Potency was inconclusive: 32.6 µM [falling, single point].

For COC(=O)c1ccc(Oc2nc(Nc3ccc(C)c(C)c3)nc(N(C)C)n2)cc1, which Potency is on record?
The Potency was inconclusive: 9.2 µM [falling, partial curve].

For COc1ccc(-n2nc3ccc(NC(=O)c4c(OC)cccc4OC)cc3n2)cc1, which Potency is on record?
The Potency was inconclusive: 6.51 µM [activator, full curve].

For COc1ccc(N=C2SC(CC(=O)Nc3ccc(F)cc3)C(=O)N2Cc2ccco2)cc1 (configuration not stated), which Potency is on record?
Its Potency is inconclusive: 29.1 µM [falling, single point].

For Fc1ccccc1-c1nc(-c2cnccc2C(F)(F)F)no1, which Potency is on record?
The Potency was inconclusive: 29.1 µM [activator, single point].

With O=C(Nc1ccc2oc(-c3ccc(F)cc3)nc2c1)c1ccccc1F as the compound, how does the Potency read?
The Potency was inconclusive: 0.103 µM [falling, full curve, poor fit].

With COc1cccc(/C=C2\SC(=S)N(CCCC(=O)N(CCO)c3ccccc3)C2=O)c1 as the compound, how does the Potency read?
The Potency was inconclusive: 25.9 µM [falling, single point].

Which Potency does the source give for CCOC(=O)c1ccc(CNC(=O)c2cc(C(C)(C)C)oc2C)o1 here?
Its Potency is inconclusive: 20.6 µM [falling, partial curve].

Which Potency does the source give for CCc1nc2ccccc2n2c(-c3ccc(C)cc3)c3c(=O)n(C)c(=O)n(C)c3c12 here?
The Potency was inconclusive: 23.1 µM [falling, partial curve, poor fit].

For COCCCC1CCN(C(=O)c2cc(COc3cc(C)ccc3C)on2)CC1, which Potency is on record?
Its Potency is inconclusive: 1.46 µM [activator, full curve].

With O[C@@H]1[C@@H](O)C=C2CCN3Cc4cc5c(cc4[C@H]1C23)OCO5 (some centres not stated) as the compound, how does the Potency read?
Its Potency is active: 6.51 µM.

Which Potency does the source give for CO/N=C/C(C#N)=C/c1cc(C(=O)c2ccccc2)cn1C here?
Its Potency is inconclusive: 14.6 µM [falling, partial curve].

Which Potency does the source give for COc1ccc(OC)c(NC(=O)c2ccc(CSc3nnc(C)s3)cc2)c1 here?
Its Potency is active: 25.9 µM.

Which Potency does the source give for COc1ccc(NC(=S)Nc2cc(C)ccn2)c(OC)c1 here?
Its Potency is inconclusive: 3.26 µM [activator, full curve].

Which “activity change, negative = inhibition” value does the source give for Cc1ccnc(Nc2nc(-c3ccc(O)cc3O)cs2)c1 here?
The value was inactive: -15.1%.

With CCOC(=O)c1c(NC(=O)CN2CCCCC2)sc2c1CCN(C(=O)OCC)C2 as the compound, how does the Potency read?
Its Potency is active: 23.1 µM.

For CCCn1c2ccccc2c2cnn(CC(=O)NC3CCN(Cc4ccccc4)CC3)c(=O)c21, which Potency is on record?
Its Potency is inconclusive: 4.11 µM [activator, full curve, poor fit].

With Cc1ccc(OCc2cc(C(=O)N(C)Cc3cnn(-c4ccccc4C)c3)no2)cn1 as the compound, how does the Potency read?
Its Potency is inconclusive: 18.4 µM [falling, partial curve, poor fit].

Which Potency does the source give for O=C1c2ccccc2C(=O)C1c1cc2ccccc2cn1 here?
Its Potency is inconclusive: 0.517 µM [activator, full curve, poor fit].
